This note sets out measurements from patent US9248103B2, “Method for improving water solubility of slightly soluble substance” (Kabushiki Kaisha Sangi, priority 2012, dated 2016).

The series can be described thus: pH of aqueous solution after 60 minutes in dissolution test using distilled water.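 Also: Comparative example rows not the inventive coated formulation.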 The class given is physicochemical. The settings on record: Lidocaine. How it is done: Moreover, as described above, since the pH of a local portion that is contacted with a poorly-soluble substance is more important than the pH of a solution as a whole, when an acidic substance is dissolved, desired effects can be obtained even though the pH is not extremely high. It is sufficient if a pH adjuster is used such that the pH of an aqueous solution of a substance with improved aqueous solubility becomes pH 8 or less. […] Herein, the pH of an aqueous solution indicates a pH value that is measured 60 minutes after the addition of a target substance to 50 mL of distilled water in an amount 2 times larger than the substance dissolved in 360 minutes. More specifically, the pH of an aqueous solution indicates a pH value that is measured according to [Dissolution test of poorly-soluble substances] in the below-mentioned Examples.
A poorly-soluble substance coated with calcium compound microparticles (a substance with improved aqueous solubility) and a test solution (50 mL) were placed in a 50-mL screw cap centrifuge tube made of glass. From initiation of the test, the mixed solution was stirred with a stirrer having a length of 15 mm. The rotation number of the stirrer was 120 rpm, and all of the tests were conducted in a thermostat at 37±0.5° C. […]

On to `CCN(CC)CC(=O)Nc1c(C)cccc1C` [7-3, Lidocaine], for which the “pH at 60 minutes after dissolution” value is on record as 9.7.
